# According to the supplement of paper PMC4604168 (melanoma cell lines):
# The list shows a part of the results. Single values are uncertain, as repeats are few or missing.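 Cells were imaged in 1,536-well plates, and nuclei stained with an antibody against cleaved PARP were counted against all DNA-stained nuclei to give the apoptosis fraction. Screening doses were chosen to leave most cells alive, and resting and induced cleaved-PARP levels differ strongly between cell lines.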
# Experiments:
# Test in all cases: cleaved PARP positive nuclei fraction relative to DMSO control; melanoma cells; higher = more apoptosis
# Details in all cases: library dose: low library concentration; 72 h
# 501Mel = system: 501Mel
# A101D = system: A101D
# A2058 = system: A2058
# C32 = system: C32
# CBRC008 = system: CBRC008 (line from a melanoma biopsy)
# CBRC014 = system: CBRC014 (line from a melanoma biopsy)
# CBRC016 = system: CBRC016 (line from a melanoma biopsy)
# CBRC017 = system: CBRC017 (line from a melanoma biopsy)
Structure (SMILES),cleaved PARP positive nuclei fraction (501Mel) [%],cleaved PARP positive nuclei fraction (A101D) [%],cleaved PARP positive nuclei fraction (A2058) [%],cleaved PARP positive nuclei fraction (C32) [%],cleaved PARP positive nuclei fraction (CBRC008) [%],cleaved PARP positive nuclei fraction (CBRC014) [%],cleaved PARP positive nuclei fraction (CBRC016) [%],cleaved PARP positive nuclei fraction (CBRC017) [%]
"CCN(CC)CCNC(=O)c1c(C)[nH]c(/C=C2\C(=O)Nc3ccc(F)cc32)c1C [sunitinib] + C/C(O)=C(\C#N)C(=O)Nc1cc(Br)ccc1Br [LFM-A13] (first compound 0.4 µM, partner dose 2 µM)",245,44.4,117,80.5,142,282,88.6,101
"O=C(/C=C/c1cccnc1)NCCCCC1CCN(C(=O)c2ccccc2)CC1 + C/C(O)=C(\C#N)C(=O)Nc1cc(Br)ccc1Br [LFM-A13] (first compound 0.01 µM, partner dose 2 µM)",730,20.5,118,76.3,3540,112,127,705
"C[C@]12O[C@H](C[C@]1(O)CO)n1c3ccccc3c3c4c(c5c6ccccc6n2c5c31)CNC4=O [Lestaurtinib] + N#Cc1c(O)c2c(-c3ccc(-c4ccccc4O)cc3)csc2[nH]c1=O [A769662] (first compound 0.004 µM, partner dose 2 µM)",88.2,45.6,31.2,144,123,64.7,58.6,68.3
"Cc1cc(Nc2cc(N3CCN(C)CC3)nc(/C=C/c3ccccc3)n2)n[nH]1 + Cc1cc(SCc2sc(-c3ccc(C(F)(F)F)c(F)c3)nc2C)ccc1OCC(=O)O [GW0742] (first compound 0.04 µM, partner dose 2 µM)",74.4,29.1,151,73.5,47.6,101,88.4,96.3
"C[C@]12O[C@H](C[C@]1(O)CO)n1c3ccccc3c3c4c(c5c6ccccc6n2c5c31)CNC4=O [Lestaurtinib] + COC(=O)c1sccc1S(=O)(=O)Nc1ccc(Nc2ccccc2)cc1OC [GSK0660] (first compound 0.004 µM, partner dose 1 µM)",76.9,145,65.3,67,143,95.7,145,100
"Cn1cnc2c(F)c(Nc3ccc(Br)cc3Cl)c(C(=O)NOCCO)cc21 [selumetinib] + Cc1cc(SCc2sc(-c3ccc(C(F)(F)F)c(F)c3)nc2C)ccc1OCC(=O)O [GW0742] (first compound 0.015 µM, partner dose 2 µM)",72,14.8,87.9,86.5,43.1,78.8,152,116
"C[C@]12O[C@H](C[C@]1(O)CO)n1c3ccccc3c3c4c(c5c6ccccc6n2c5c31)CNC4=O [Lestaurtinib] + COc1ccc(COc2ccc(Cc3cnc(N)nc3N)cc2OC)cc1 [GW2580] (first compound 0.004 µM, partner dose 1 µM)",63.7,28,91.4,30.4,27.5,83.4,36.4,171
"NC1(c2ccc(-c3nc4ccn5c(=O)[nH]nc5c4cc3-c3ccccc3)cc2)CCC1 + Cc1cc(SCc2sc(-c3ccc(C(F)(F)F)c(F)c3)nc2C)ccc1OCC(=O)O [GW0742] (first compound 0.4 µM, partner dose 2 µM)",216,52.8,63.4,64.3,54.2,81.7,206,75.6
"C[C@]12O[C@H](C[C@]1(O)CO)n1c3ccccc3c3c4c(c5c6ccccc6n2c5c31)CNC4=O [Lestaurtinib] + COc1cc2ncnc(Nc3ccc(Oc4ccccc4)cc3)c2cc1OC [SrcI1] (first compound 0.004 µM, partner dose 2 µM)",69,20.7,39.7,118,86.1,198,61.6,68.7
"C[C@]12O[C@H](C[C@]1(O)CO)n1c3ccccc3c3c4c(c5c6ccccc6n2c5c31)CNC4=O [Lestaurtinib] + CCCCCCCCCCCC1=C(O)C(=O)C=C(O)C1=O [Embelin] (first compound 0.004 µM, partner dose 1.2 µM)",85.7,46.4,93.2,261,143,89.8,50.4,93.8
"Cc1cc(Nc2cc(N3CCN(C)CC3)nc(/C=C/c3ccccc3)n2)n[nH]1 + C/C(O)=C(\C#N)C(=O)Nc1cc(Br)ccc1Br [LFM-A13] (first compound 0.04 µM, partner dose 2 µM)",114,42.4,147,96.5,279,111,49.7,93.7
"CCN(CC)CCNC(=O)c1c(C)[nH]c(/C=C2\C(=O)Nc3ccc(F)cc32)c1C [sunitinib] + Cc1cc(SCc2sc(-c3ccc(C(F)(F)F)c(F)c3)nc2C)ccc1OCC(=O)O [GW0742] (first compound 0.4 µM, partner dose 2 µM)",81.1,37.7,85.7,37.4,192,101,77.5,150
"C[C@]12O[C@H](C[C@]1(O)CO)n1c3ccccc3c3c4c(c5c6ccccc6n2c5c31)CNC4=O [Lestaurtinib] + Cc1cc(SCc2sc(-c3ccc(C(F)(F)F)c(F)c3)nc2C)ccc1OCC(=O)O [GW0742] (first compound 0.004 µM, partner dose 2 µM)",174,13.9,31.1,86.2,144,80.9,154,148
"C=CCNC1=C2C[C@@H](C)C[C@H](OC)[C@H](O)[C@@H](C)/C=C(\C)[C@H](OC(N)=O)[C@@H](OC)/C=C\C=C(/C)C(=O)NC(=CC1=O)C2=O [Tanespimycin] + O=C(Oc1ccc([N+](=O)[O-])cc1)N1CCC(C(O)(c2ccc3c(c2)OCO3)c2ccc3c(c2)OCO3)CC1 [JZL184] (first compound 0.002 µM, partner dose 1 µM)",167,10.1,75.9,150,131,87.6,54.2,51.4
"C[C@]12O[C@H](C[C@]1(O)CO)n1c3ccccc3c3c4c(c5c6ccccc6n2c5c31)CNC4=O [Lestaurtinib] + O=C(Oc1ccc([N+](=O)[O-])cc1)N1CCC(C(O)(c2ccc3c(c2)OCO3)c2ccc3c(c2)OCO3)CC1 [JZL184] (first compound 0.004 µM, partner dose 1 µM)",127,29.5,75,64.9,281,154,77.8,123
"O=C(O)[C@@H]1[O][Sb](=[O])([O][Sb]2(=[O])[O][C@H]([C@H](O)CO)[C@H](O)[C@H](C(=O)O)[O]2)[O][C@H]([C@H](O)CO)[C@@H]1O (some centres not stated) [stibogluconate] + Cc1cc(SCc2sc(-c3ccc(C(F)(F)F)c(F)c3)nc2C)ccc1OCC(=O)O [GW0742] (first compound 2 µM, partner dose 2 µM)",83.7,20.5,44.7,79.3,156,87.6,92.7,69.5
"N.N.[Cl][Pt][Cl] [cisplatin] + O=c1cc(-c2cccc3c2Sc2ccccc2S3)oc(N2CCOCC2)c1 [KU55933] (first compound 1.6 µM, partner dose 1 µM)",73,30.2,44.7,118,136,88.6,62.1,85.3
"C[C@]12O[C@H](C[C@]1(O)CO)n1c3ccccc3c3c4c(c5c6ccccc6n2c5c31)CNC4=O [Lestaurtinib] + O=C(O)C(=O)Nc1sc2c(c1C(=O)O)CCNC2 [TCS401] (first compound 0.004 µM, partner dose 1.66667 µM)",34.3,8.53,85.3,38.4,62.8,77.7,75.1,71
"Cn1c(=O)n(-c2ccc(C(C)(C)C#N)cc2)c2c3cc(-c4cnc5ccccc5c4)ccc3ncc21 + O=C(Oc1ccc([N+](=O)[O-])cc1)N1CCC(C(O)(c2ccc3c(c2)OCO3)c2ccc3c(c2)OCO3)CC1 [JZL184] (first compound 0.004 µM, partner dose 1 µM)",87.3,11.4,96.3,241,84.6,98.8,41.3,84.5
"C[C@]12O[C@H](C[C@]1(O)CO)n1c3ccccc3c3c4c(c5c6ccccc6n2c5c31)CNC4=O [Lestaurtinib] + CCN(CC)CCCCNc1ncc2cc(-c3cc(OC)cc(OC)c3)c(NC(=O)NC(C)(C)C)nc2n1 [PD173074] (first compound 0.004 µM, partner dose 0.1 µM)",77.1,31.9,110,61.1,265,109,18.6,62.2
"CC(C)C[C@H](NC(=O)[C@H](Cc1ccccc1)NC(=O)c1cnccn1)B(O)O [Bortezomib] + C/C(O)=C(\C#N)C(=O)Nc1cc(Br)ccc1Br [LFM-A13] (first compound 0.001 µM, partner dose 2 µM)",275,60.2,113,60.3,607,181,169,169
"Cn1sc(=O)n(Cc2ccccc2)c1=O + O=C(Oc1ccc([N+](=O)[O-])cc1)N1CCC(C(O)(c2ccc3c(c2)OCO3)c2ccc3c(c2)OCO3)CC1 [JZL184] (first compound 0.4 µM, partner dose 1 µM)",78,38.5,13.5,23.4,80.7,88.6,74.8,88.6
"Cn1cc(C2=C(c3cn(C4CCN(Cc5ccccn5)CC4)c4ccccc34)C(=O)NC2=O)c2ccccc21 [Enzastaurin] + C/C(O)=C(\C#N)C(=O)Nc1cc(Br)ccc1Br [LFM-A13] (first compound 0.8 µM, partner dose 2 µM)",65.6,23.5,170,173,47.7,104,34,97.7
"Cc1cc(Nc2cc(N3CCN(C)CC3)nc(Sc3ccc(NC(=O)C4CC4)cc3)n2)n[nH]1 [Tozasertib] + C/C(O)=C(\C#N)C(=O)Nc1cc(Br)ccc1Br [LFM-A13] (first compound 0.006 µM, partner dose 2 µM)",60.1,13.1,48.4,21.1,201,103,116,85.8

# Four entries from above in a different format.
Structure (SMILES)	cleaved PARP positive nuclei fraction (501Mel) [%]	cleaved PARP positive nuclei fraction (A101D) [%]	cleaved PARP positive nuclei fraction (A2058) [%]	cleaved PARP positive nuclei fraction (C32) [%]	cleaved PARP positive nuclei fraction (CBRC008) [%]	cleaved PARP positive nuclei fraction (CBRC014) [%]	cleaved PARP positive nuclei fraction (CBRC016) [%]	cleaved PARP positive nuclei fraction (CBRC017) [%]
C[C@]12O[C@H](C[C@]1(O)CO)n1c3ccccc3c3c4c(c5c6ccccc6n2c5c31)CNC4=O [Lestaurtinib] + N#Cc1c(O)c2c(-c3ccc(-c4ccccc4O)cc3)csc2[nH]c1=O [A769662] (first compound 0.004 µM, partner dose 2 µM)	88.2	45.6	31.2	144	123	64.7	58.6	68.3
C[C@]12O[C@H](C[C@]1(O)CO)n1c3ccccc3c3c4c(c5c6ccccc6n2c5c31)CNC4=O [Lestaurtinib] + COc1cc2ncnc(Nc3ccc(Oc4ccccc4)cc3)c2cc1OC [SrcI1] (first compound 0.004 µM, partner dose 2 µM)	69	20.7	39.7	118	86.1	198	61.6	68.7
CCN(CC)CCNC(=O)c1c(C)[nH]c(/C=C2\C(=O)Nc3ccc(F)cc32)c1C [sunitinib] + Cc1cc(SCc2sc(-c3ccc(C(F)(F)F)c(F)c3)nc2C)ccc1OCC(=O)O [GW0742] (first compound 0.4 µM, partner dose 2 µM)	81.1	37.7	85.7	37.4	192	101	77.5	150
C[C@]12O[C@H](C[C@]1(O)CO)n1c3ccccc3c3c4c(c5c6ccccc6n2c5c31)CNC4=O [Lestaurtinib] + O=C(O)C(=O)Nc1sc2c(c1C(=O)O)CCNC2 [TCS401] (first compound 0.004 µM, partner dose 1.66667 µM)	34.3	8.53	85.3	38.4	62.8	77.7	75.1	71
